From the supplement of paper PMC10849652
The list shows a part of the results.

Amino acid sequences for entries named in this document (tags omitted). A change or cut given only in a name is not applied to a line headed by its entry.
UniProt Q8IWB9: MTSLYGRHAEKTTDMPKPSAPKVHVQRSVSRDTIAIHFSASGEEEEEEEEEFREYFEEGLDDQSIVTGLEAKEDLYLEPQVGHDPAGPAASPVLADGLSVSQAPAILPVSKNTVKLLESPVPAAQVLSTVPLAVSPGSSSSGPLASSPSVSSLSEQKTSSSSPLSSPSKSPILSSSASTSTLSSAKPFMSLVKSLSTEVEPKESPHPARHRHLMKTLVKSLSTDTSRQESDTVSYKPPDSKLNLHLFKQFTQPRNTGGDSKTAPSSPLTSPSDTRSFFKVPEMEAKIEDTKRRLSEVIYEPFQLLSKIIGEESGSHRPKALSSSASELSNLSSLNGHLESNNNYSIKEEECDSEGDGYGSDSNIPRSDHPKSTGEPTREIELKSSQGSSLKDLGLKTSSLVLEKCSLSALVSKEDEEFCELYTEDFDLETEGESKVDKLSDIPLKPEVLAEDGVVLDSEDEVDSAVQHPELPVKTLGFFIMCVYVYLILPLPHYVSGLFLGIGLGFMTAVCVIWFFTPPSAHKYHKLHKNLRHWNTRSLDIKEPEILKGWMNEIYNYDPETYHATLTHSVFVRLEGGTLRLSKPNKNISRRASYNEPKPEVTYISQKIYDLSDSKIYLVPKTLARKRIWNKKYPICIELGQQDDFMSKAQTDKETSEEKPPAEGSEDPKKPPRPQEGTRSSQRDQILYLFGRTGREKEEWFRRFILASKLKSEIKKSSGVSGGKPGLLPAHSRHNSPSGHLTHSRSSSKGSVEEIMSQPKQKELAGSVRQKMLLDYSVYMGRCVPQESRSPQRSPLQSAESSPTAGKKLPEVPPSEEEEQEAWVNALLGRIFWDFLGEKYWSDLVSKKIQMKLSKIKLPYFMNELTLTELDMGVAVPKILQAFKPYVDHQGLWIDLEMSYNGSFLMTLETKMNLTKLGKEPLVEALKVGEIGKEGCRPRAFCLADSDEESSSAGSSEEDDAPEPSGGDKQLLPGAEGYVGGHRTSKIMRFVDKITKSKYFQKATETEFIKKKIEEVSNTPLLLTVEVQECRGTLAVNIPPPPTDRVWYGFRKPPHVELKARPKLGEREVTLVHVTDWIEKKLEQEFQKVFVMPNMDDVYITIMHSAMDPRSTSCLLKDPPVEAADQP
UniProt Q9BYX2: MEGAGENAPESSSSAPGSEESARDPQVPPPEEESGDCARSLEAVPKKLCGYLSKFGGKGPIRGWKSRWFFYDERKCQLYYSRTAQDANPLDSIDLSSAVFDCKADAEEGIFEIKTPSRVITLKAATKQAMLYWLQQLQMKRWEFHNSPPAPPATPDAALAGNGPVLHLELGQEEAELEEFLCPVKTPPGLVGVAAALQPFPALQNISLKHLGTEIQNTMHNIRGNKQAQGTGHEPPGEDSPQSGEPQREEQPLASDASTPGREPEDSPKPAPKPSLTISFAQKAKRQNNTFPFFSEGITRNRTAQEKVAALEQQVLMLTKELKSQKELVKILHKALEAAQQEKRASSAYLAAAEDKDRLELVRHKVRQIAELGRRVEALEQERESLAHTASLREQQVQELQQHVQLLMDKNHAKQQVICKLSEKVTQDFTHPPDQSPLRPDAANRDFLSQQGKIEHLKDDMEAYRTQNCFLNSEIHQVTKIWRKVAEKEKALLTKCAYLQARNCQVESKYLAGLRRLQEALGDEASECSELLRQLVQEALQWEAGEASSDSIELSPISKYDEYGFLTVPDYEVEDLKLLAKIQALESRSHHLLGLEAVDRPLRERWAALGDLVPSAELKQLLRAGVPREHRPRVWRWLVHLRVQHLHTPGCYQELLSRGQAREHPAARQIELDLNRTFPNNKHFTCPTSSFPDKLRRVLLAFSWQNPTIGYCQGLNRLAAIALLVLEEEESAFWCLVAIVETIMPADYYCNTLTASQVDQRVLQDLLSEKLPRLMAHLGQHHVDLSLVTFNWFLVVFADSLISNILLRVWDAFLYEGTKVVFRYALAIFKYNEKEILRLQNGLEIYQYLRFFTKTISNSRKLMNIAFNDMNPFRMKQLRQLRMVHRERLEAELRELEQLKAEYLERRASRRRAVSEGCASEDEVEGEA
UniProt Q8WVM0: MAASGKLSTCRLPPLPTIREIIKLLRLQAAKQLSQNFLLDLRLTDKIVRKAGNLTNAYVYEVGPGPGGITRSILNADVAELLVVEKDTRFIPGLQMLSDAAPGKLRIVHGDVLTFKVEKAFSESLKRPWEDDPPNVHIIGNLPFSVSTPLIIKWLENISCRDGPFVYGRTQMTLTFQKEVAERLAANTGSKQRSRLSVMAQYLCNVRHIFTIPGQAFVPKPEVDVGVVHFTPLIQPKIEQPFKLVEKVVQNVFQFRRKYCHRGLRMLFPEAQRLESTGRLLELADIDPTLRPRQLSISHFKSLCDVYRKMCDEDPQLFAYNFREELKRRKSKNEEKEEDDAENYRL
UniProt Q01664: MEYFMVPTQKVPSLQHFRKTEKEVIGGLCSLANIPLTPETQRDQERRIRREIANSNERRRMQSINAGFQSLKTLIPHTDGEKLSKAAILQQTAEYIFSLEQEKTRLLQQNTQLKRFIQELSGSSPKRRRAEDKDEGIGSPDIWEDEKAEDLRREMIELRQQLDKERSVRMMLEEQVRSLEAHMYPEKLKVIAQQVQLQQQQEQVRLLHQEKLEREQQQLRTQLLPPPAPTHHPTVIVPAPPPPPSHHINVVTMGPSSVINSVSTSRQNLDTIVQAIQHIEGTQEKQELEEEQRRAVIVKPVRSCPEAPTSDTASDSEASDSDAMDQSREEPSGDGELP
UniProt O14907: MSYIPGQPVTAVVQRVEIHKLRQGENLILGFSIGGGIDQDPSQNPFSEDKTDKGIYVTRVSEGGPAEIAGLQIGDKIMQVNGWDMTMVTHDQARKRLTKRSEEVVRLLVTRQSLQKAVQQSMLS
UniProt Q9NUJ3: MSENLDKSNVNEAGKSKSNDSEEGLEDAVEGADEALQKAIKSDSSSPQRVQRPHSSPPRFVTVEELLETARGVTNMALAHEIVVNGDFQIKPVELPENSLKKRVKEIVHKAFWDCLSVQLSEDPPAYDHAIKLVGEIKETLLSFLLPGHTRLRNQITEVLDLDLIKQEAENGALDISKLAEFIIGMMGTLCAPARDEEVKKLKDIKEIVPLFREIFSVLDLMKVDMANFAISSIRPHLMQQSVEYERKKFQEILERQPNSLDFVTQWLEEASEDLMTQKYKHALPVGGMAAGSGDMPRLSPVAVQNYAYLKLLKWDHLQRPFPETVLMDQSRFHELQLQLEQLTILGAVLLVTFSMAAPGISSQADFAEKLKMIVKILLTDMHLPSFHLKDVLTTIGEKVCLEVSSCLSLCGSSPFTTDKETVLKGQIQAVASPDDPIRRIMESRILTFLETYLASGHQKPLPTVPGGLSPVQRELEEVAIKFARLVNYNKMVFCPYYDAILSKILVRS
UniProt Q9UP52: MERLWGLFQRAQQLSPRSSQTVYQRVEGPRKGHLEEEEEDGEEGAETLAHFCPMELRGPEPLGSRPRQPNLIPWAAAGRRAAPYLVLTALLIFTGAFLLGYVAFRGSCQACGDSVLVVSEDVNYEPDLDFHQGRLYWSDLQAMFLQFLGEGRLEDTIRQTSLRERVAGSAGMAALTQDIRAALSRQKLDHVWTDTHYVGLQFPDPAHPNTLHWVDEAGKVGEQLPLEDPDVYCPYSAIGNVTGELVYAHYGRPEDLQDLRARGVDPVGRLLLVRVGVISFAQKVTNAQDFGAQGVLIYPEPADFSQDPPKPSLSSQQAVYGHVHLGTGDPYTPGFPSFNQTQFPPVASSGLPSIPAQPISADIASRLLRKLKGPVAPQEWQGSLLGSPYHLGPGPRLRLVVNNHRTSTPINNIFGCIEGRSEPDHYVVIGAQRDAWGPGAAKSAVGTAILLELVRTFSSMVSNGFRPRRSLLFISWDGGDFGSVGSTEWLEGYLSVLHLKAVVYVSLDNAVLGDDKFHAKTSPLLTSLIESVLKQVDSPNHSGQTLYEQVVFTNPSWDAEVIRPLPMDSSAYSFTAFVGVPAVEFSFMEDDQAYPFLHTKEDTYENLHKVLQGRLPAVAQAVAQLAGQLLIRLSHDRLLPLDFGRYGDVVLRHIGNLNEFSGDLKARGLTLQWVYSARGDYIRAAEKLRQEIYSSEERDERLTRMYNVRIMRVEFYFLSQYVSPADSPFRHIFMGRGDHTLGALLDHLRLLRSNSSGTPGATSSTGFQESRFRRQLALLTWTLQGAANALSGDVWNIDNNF
UniProt Q15813: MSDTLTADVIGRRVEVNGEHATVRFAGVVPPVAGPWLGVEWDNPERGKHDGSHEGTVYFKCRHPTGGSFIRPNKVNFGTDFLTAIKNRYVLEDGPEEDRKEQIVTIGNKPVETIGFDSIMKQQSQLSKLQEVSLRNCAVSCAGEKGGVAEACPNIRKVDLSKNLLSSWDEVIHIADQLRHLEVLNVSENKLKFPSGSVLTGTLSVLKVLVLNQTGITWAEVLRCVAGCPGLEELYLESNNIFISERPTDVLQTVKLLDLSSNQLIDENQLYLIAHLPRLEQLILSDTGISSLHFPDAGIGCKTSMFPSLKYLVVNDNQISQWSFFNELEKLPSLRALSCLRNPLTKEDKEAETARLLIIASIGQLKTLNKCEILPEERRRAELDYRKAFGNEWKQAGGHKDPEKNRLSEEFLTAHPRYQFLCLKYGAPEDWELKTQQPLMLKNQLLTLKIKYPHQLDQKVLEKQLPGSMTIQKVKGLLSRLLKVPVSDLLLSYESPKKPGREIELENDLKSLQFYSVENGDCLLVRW
UniProt Q9UHD2: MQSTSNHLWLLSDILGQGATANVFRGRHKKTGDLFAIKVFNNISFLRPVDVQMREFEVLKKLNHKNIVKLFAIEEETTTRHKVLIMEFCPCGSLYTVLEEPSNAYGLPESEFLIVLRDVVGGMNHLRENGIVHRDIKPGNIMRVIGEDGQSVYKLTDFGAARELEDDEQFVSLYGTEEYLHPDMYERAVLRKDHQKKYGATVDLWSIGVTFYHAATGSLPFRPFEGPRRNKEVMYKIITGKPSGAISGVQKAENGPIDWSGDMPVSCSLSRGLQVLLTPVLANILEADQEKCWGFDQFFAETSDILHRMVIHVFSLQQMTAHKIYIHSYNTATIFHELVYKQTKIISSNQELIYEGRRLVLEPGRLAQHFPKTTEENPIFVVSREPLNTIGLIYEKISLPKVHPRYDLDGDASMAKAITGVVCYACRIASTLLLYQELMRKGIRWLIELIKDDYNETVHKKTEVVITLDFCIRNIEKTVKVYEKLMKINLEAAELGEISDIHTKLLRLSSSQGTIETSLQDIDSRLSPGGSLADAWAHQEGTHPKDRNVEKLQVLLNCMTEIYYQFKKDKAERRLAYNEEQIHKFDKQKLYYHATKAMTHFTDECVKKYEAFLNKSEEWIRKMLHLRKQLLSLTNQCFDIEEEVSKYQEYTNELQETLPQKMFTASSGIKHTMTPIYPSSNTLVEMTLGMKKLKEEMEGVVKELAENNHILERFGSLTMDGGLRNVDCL

Experiments:
Experiment in all cases: log2 fold change, soluble protein after heating vs DMSO (PISA); higher = thermal stabilisation; K562 lysate, 10 uM; active = over 0.2 and 3.5 SD of the protein, either way, in both replicates (recomputed)
vemurafenib = compound: CCCS(=O)(=O)Nc1ccc(F)c(C(=O)c2c[nH]c3ncc(-c4ccc(Cl)cc4)cc23)c1F [vemurafenib]
How it was run: (§1)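 The values are log-two fold changes in thermal stability compared with solvent controls and come from duplicates. They were obtained by TMTpro 16plex LC-MS/MS, with channel sums equalised, on the supernatant after 21,000xg for 90 min. That supernatant came from crude K562 extract at 1 mg/mL protein treated with 10 μM compound for 30 min, heated for 3 min across 48°C-58°C, pooled and brought to 0.5% NP-40 at 4°C.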

[1] = compound: CCCS(=O)(=O)Nc1ccc(F)c(C(=O)c2c[nH]c3ncc(Cl)cc23)c1F
How it was run: as §1

barasertib = compound: CCN(CCCOc1ccc2c(Nc3cc(CC(=O)Nc4cccc(F)c4)[nH]n3)ncnc2c1)CCOP(=O)(O)O [barasertib]
How it was run: as §1

[2] = compound: CC[C@@H]1C(=O)N(C)c2cnc(Nc3ccc(C(=O)NC4CCN(C)CC4)cc3OC)nc2N1C1CCCC1
How it was run: as §1

volasertib = compound: CC[C@@H]1C(=O)N(C)c2cnc(Nc3ccc(C(=O)N[C@H]4CC[C@H](N5CCN(CC6CC6)CC5)CC4)cc3OC)nc2N1C(C)C [volasertib]
How it was run: as §1

[3] = compound: CCn1c(C(=O)N(C2CC2)C2CC2)cc2c3c(ncn3C)c(Nc3cc(C)n(C)n3)nc21
How it was run: as §1

[4] = compound: CCn1cc(-c2ccnc3[nH]c(-c4cccc(CN(C)C)c4)cc23)c(-c2ccc(NC(=O)N(C)C)cc2)n1
How it was run: as §1

[5] = compound: CN1CCC(CNc2ccc3ncc(-c4cccc(OC(F)(F)F)c4)n3n2)CC1
How it was run: as §1

saracatinib = compound: CN1CCN(CCOc2cc(OC3CCOCC3)c3c(Nc4c(Cl)ccc5c4OCO5)ncnc3c2)CC1 [saracatinib]
How it was run: as §1

sotrastaurin = compound: CN1CCN(c2nc(C3=C(c4c[nH]c5ccccc45)C(=O)NC3=O)c3ccccc3n2)CC1 [sotrastaurin]
How it was run: as §1

alvocidib = compound: CN1CC[C@H](c2c(O)cc(O)c3c(=O)cc(-c4ccccc4Cl)oc23)[C@H](O)C1 [alvocidib]
How it was run: as §1

Tubastatin A = compound: CN1CCc2c(c3ccccc3n2Cc2ccc(C(=O)NO)cc2)C1 [Tubastatin A]
How it was run: as §1

[6] = compound: CNC(=O)C1=CC=CC=C1NC2=NC(=NC=C2Cl)NC3=C(C=C(C=C3)N4CCOCC4)OC
How it was run: as §1

defactinib = compound: CNC(=O)c1ccc(Nc2ncc(C(F)(F)F)c(NCc3nccnc3N(C)S(C)(=O)=O)n2)cc1 [defactinib]
How it was run: as §1

[7] = compound: CNc1nc(-c2ccc3c(N)n[nH]c3c2)cc(N2C[C@@H](C(=O)NC3CCCCC3)CC[C@H]2C)n1
How it was run: as §1

encorafenib = compound: COC(=O)N[C@@H](C)CNc1nccc(-c2cn(C(C)C)nc2-c2cc(Cl)cc(NS(C)(=O)=O)c2F)n1 [encorafenib]
How it was run: as §1

[8] = compound: COC(=O)[C@H](CCSC)NC(=O)C1=C(C=C(C=C1)NC[C@H](CS)N)C2=CC=CC=C2
How it was run: as §1

alisertib = compound: COc1cc(Nc2ncc3c(n2)-c2ccc(Cl)cc2C(c2c(F)cccc2OC)=NC3)ccc1C(=O)O [alisertib]
How it was run: as §1

[9] = compound: COc1cc2nc(-c3cc(F)ccc3O)nc(N[C@@H]3CNC[C@H]3C(C)(C)O)c2cc1OC
How it was run: as §1

gefitinib = compound: COc1cc2ncnc(Nc3ccc(F)c(Cl)c3)c2cc1OCCCN1CCOCC1 [gefitinib]
How it was run: as §1

In the case of TEX2 isoform 2 (UniProt Q8IWB9), the log2 fold change (vemurafenib) is reported as inactive: -0.058, the log2 fold change [1] is reported as inactive: -0.063 and the log2 fold change (barasertib) is reported as inactive: -0.045. The log2 fold change [2] was inactive: -0.07, the log2 fold change (volasertib) was inactive: -0.013 and the log2 fold change [3] was inactive: -0.065. For the same target, the log2 fold change [4] was inactive: 0.104, the log2 fold change [5] was inactive: -0.07 and the log2 fold change (saracatinib) was inactive: 0.026. The log2 fold change (sotrastaurin) was inactive: -0.003, the log2 fold change (alvocidib) was inactive: 0.038 and the log2 fold change (Tubastatin A) was inactive: 0.036. The log2 fold change [6] was inactive: -0.052, the log2 fold change (defactinib) was inactive: -0.042 and the log2 fold change [7] was inactive: 0.059. For the same target, the log2 fold change (encorafenib) was inactive: -0.045, the log2 fold change [8] was inactive: 0.04 and the log2 fold change (alisertib) was inactive: -0.03. The log2 fold change [9] was inactive: 0.088 and the log2 fold change (gefitinib) was inactive: 0.039.

With TBC1D2 (UniProt Q9BYX2) the log2 fold change (vemurafenib) was inactive: 0.03, the log2 fold change [1] was inactive: 0.025 and the log2 fold change (barasertib) was inactive: 0.003. The log2 fold change [2] was inactive: 0.131, the log2 fold change (volasertib) was inactive: -0.021 and the log2 fold change [3] was inactive: 0.026. The log2 fold change [4] was inactive: -0.024, the log2 fold change [5] was inactive: -0.033 and the log2 fold change (saracatinib) was inactive: 0.036. The log2 fold change (sotrastaurin) was inactive: -0.018, the log2 fold change (alvocidib) was inactive: 0.012 and the log2 fold change (Tubastatin A) was inactive: -0.085. The log2 fold change [6] was inactive: -0.034, the log2 fold change (defactinib) was inactive: 0.133 and the log2 fold change [7] was inactive: 0.014. For the same target, the log2 fold change (encorafenib) was inactive: -0.057, the log2 fold change [8] was inactive: 0.106 and the log2 fold change (alisertib) was inactive: 0.023. The log2 fold change [9] was inactive: 0.072 and the log2 fold change (gefitinib) was inactive: -0.018.

With TFB1M (UniProt Q8WVM0) the log2 fold change (vemurafenib) was inactive: 0.036, the log2 fold change [1] was inactive: 0.018 and the log2 fold change (barasertib) was inactive: -0.052. For the same target, the log2 fold change [2] was inactive: -0.048, the log2 fold change (volasertib) was inactive: -0.025 and the log2 fold change [3] was inactive: 0.08. For the same target, the log2 fold change [4] was inactive: -0.013, the log2 fold change [5] was inactive: 0.075 and the log2 fold change (saracatinib) was inactive: 0.029. The log2 fold change (sotrastaurin) was inactive: 0.008, the log2 fold change (alvocidib) was inactive: 0.026 and the log2 fold change (Tubastatin A) was inactive: -0.086. For the same target, the log2 fold change [6] was inactive: -0.046, the log2 fold change (defactinib) was inactive: 0.05 and the log2 fold change [7] was inactive: 0.075. The log2 fold change (encorafenib) was inactive: 0.023, the log2 fold change [8] was inactive: -0.099 and the log2 fold change (alisertib) was inactive: -0.026. For the same target, the log2 fold change [9] was inactive: -0.004 and the log2 fold change (gefitinib) was inactive: 0.033.

In the case of TFAP4 (UniProt Q01664), the log2 fold change (vemurafenib) is reported as inactive: 0.105, the log2 fold change [1] is reported as inactive: 0.021 and the log2 fold change (barasertib) is reported as inactive: 0.072. For the same target, the log2 fold change [2] was inactive: 0.131, the log2 fold change (volasertib) was inactive: -0.112 and the log2 fold change [3] was inactive: 0.129. For the same target, the log2 fold change [4] was inactive: 0.597, the log2 fold change [5] was inactive: -0.189 and the log2 fold change (sotrastaurin) was inactive: 0.007. For the same target, the log2 fold change (alvocidib) was inactive: -0.037, the log2 fold change (Tubastatin A) was inactive: 0.135 and the log2 fold change [6] was inactive: 0.133. For the same target, the log2 fold change (defactinib) was inactive: -0.066, the log2 fold change (encorafenib) was inactive: 0.156 and the log2 fold change [8] was inactive: -0.108. For the same target, the log2 fold change (alisertib) was inactive: -0.106, the log2 fold change [9] was inactive: -0.097 and the log2 fold change (gefitinib) was inactive: -0.096.

In the case of TAX1BP3 (UniProt O14907), the log2 fold change (vemurafenib) is reported as inactive: -0.015, the log2 fold change [1] is reported as inactive: -0.138 and the log2 fold change (barasertib) is reported as inactive: 0.341. The log2 fold change [2] was inactive: 0.119, the log2 fold change (volasertib) was inactive: -0.083 and the log2 fold change [3] was inactive: -0.01. The log2 fold change [4] was inactive: 0.021, the log2 fold change [5] was inactive: 0.087 and the log2 fold change (saracatinib) was inactive: 0.039. For the same target, the log2 fold change (alvocidib) was inactive: 0.059, the log2 fold change (Tubastatin A) was inactive: -0.275 and the log2 fold change [6] was inactive: 0.009. For the same target, the log2 fold change (defactinib) was inactive: 0.087, the log2 fold change [7] was inactive: -0.06 and the log2 fold change (encorafenib) was inactive: 0.071. The log2 fold change [8] was inactive: -0.165 and the log2 fold change [9] was inactive: 0.053.

TCP11L1 (UniProt Q9NUJ3) was tested, and the log2 fold change (vemurafenib) was inactive: -0.078, the log2 fold change [1] was inactive: 0.014 and the log2 fold change (barasertib) was inactive: 0.038. For the same target, the log2 fold change [2] was inactive: 0.045, the log2 fold change (volasertib) was inactive: -0.054 and the log2 fold change [3] was inactive: 0.009. For the same target, the log2 fold change [4] was inactive: -0.244, the log2 fold change [5] was inactive: 0.097 and the log2 fold change (saracatinib) was inactive: -0.007. The log2 fold change (sotrastaurin) was inactive: 0.009, the log2 fold change (alvocidib) was inactive: -0.098 and the log2 fold change (Tubastatin A) was inactive: -0.006. For the same target, the log2 fold change [6] was inactive: 0.029, the log2 fold change (defactinib) was inactive: 0.023 and the log2 fold change [7] was inactive: -0.064. For the same target, the log2 fold change (encorafenib) was inactive: 0.006, the log2 fold change [8] was inactive: -0.064 and the log2 fold change (alisertib) was inactive: -0.022. For the same target, the log2 fold change [9] was inactive: 0.032 and the log2 fold change (gefitinib) was inactive: -0.001.

For TFR2 (UniProt Q9UP52), the log2 fold change (vemurafenib) was inactive: 0.003, the log2 fold change [1] was inactive: 0.015 and the log2 fold change (barasertib) was inactive: -0.035. For the same target, the log2 fold change [2] was inactive: 0.051, the log2 fold change (volasertib) was inactive: -0.002 and the log2 fold change [3] was inactive: 0.021. The log2 fold change [4] was inactive: -0.017, the log2 fold change [5] was inactive: 0.004 and the log2 fold change (saracatinib) was inactive: 0.014. The log2 fold change (sotrastaurin) was inactive: 0.03, the log2 fold change (alvocidib) was inactive: -0.008 and the log2 fold change (Tubastatin A) was inactive: -0.001. For the same target, the log2 fold change [6] was inactive: -0.007, the log2 fold change (defactinib) was inactive: -0.053 and the log2 fold change [7] was inactive: 0.026. For the same target, the log2 fold change (encorafenib) was inactive: 0.02, the log2 fold change [8] was inactive: -0.006 and the log2 fold change (alisertib) was inactive: 0.012. The log2 fold change [9] was inactive: 0 and the log2 fold change (gefitinib) was inactive: -0.008.

For TBCE (UniProt Q15813), the log2 fold change (vemurafenib) was inactive: 0.04, the log2 fold change [1] was inactive: 0.015 and the log2 fold change (barasertib) was inactive: 0.024. The log2 fold change [2] was inactive: -0.065, the log2 fold change (volasertib) was inactive: -0.082 and the log2 fold change [3] was inactive: 0.048. For the same target, the log2 fold change [4] was inactive: -0.044, the log2 fold change [5] was inactive: -0.023 and the log2 fold change (saracatinib) was inactive: 0.013. For the same target, the log2 fold change (sotrastaurin) was inactive: 0.001, the log2 fold change (alvocidib) was inactive: -0.008 and the log2 fold change (Tubastatin A) was inactive: -0.162. For the same target, the log2 fold change [6] was inactive: -0.026, the log2 fold change (defactinib) was inactive: 0.031 and the log2 fold change [7] was inactive: -0.028. The log2 fold change (encorafenib) was inactive: -0.008, the log2 fold change [8] was active: 0.265 and the log2 fold change (alisertib) was inactive: -0.008. For the same target, the log2 fold change [9] was inactive: -0.006 and the log2 fold change (gefitinib) was inactive: -0.006.

With TBK1 (UniProt Q9UHD2) the log2 fold change (vemurafenib) was inactive: 0.008, the log2 fold change [1] was inactive: 0.002 and the log2 fold change (barasertib) was inactive: -0.03. For the same target, the log2 fold change [2] was inactive: -0.058, the log2 fold change (volasertib) was inactive: -0.064 and the log2 fold change [3] was inactive: -0.021. For the same target, the log2 fold change [4] was inactive: 0.216, the log2 fold change [5] was inactive: 0.079 and the log2 fold change (saracatinib) was inactive: -0.029. For the same target, the log2 fold change (sotrastaurin) was inactive: -0.045, the log2 fold change (Tubastatin A) was inactive: -0.16 and the log2 fold change [6] was active: 0.528. The log2 fold change (defactinib) was inactive: 0.328, the log2 fold change [7] was inactive: -0.035 and the log2 fold change (encorafenib) was inactive: 0.014. The log2 fold change [8] was inactive: -0.293, the log2 fold change (alisertib) was inactive: 0.039 and the log2 fold change [9] was inactive: -0.007. For the same target, the log2 fold change (gefitinib) was inactive: -0.032.
